We go through one molecule from patent US20060110777A1 (Genentech, published 2006).

The chains behind the UniProt entries cited, without tags or fusion partners. Residues count along the entry.
UniProt Q9Y275, residues 134-285: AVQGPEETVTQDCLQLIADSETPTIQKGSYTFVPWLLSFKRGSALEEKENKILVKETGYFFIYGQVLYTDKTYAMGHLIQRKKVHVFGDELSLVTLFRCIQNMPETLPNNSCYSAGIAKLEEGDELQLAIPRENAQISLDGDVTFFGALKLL

No constants are given. Whether binding was seen depends on the method and setting. Some binding calls cover weakened binding; strength is not graded here.

In this assay the target is T1, BAFF (UniProt Q9Y275 134-285, limits assumed).
T1 construct: Coated on ELISA plates at 2 ug/ml; The construct is not described; also called BLyS; TALL-1
In words: competitive displacement ELISA, BAFF coated, biotinylated miniBR3 as tracer. The protocol:
FIGS. 16A-16B depict binding of BR3 variants to BAFF. (A) Competitive displacement of biotinylated miniBR3 measured by ELISA (see methods). Data are shown for BR3 extracellular domain (filled triangles), miniBR3 (open squares), and bhpBR3 (filled circles). IC₅₀ values from the fitted curves are 70 nM, 65 nM, and 15 μM, respectively. (B) HeLa cells expressing a chimeric receptor composed of the extracellular ligand-binding domain of BR3 fused to the death domain of DR4 were seeded 16 hr before treatment. BAFF (2 nM) was added to cells alone or after being preincubated with miniBR3 (3 μM), bhpBR3 (100 μM) or a control hairpin peptide with an unrelated turn sequence in the same bhp scaffold (bhpC, 100 μM) for 30 min at room temperature. Apoptosis was assessed 24 hr later. […]
Nunc Maxisorp 96-well plates were coated overnight at 4° C. with 100 μl of a 2 μg/ml solution of BAFF in carbonate buffer, pH 9.6. […] The reaction was quenched with 100 μl/well 1M H₃PO₄ and the plate read at 490 nm. IC₅₀ values were determined by a four-parameter fit of the competitive displacement ELISA signal. The concentrations of initial stock solutions of bhpBR3 were determined spectrophotometrically as described (Gill and von Hippel, (1989) Anal. Biochem. 182:319-326), while those of miniBR3 and BR3 extracellular domain were determined by quantitative amino acid analysis.

As for CHWDLLVRHWVC (C-terminal amide; cyclic disulfide between the two cysteines) [bhpBR3], the binding entry is on record as “binds”.
